# Assay results: the supplement of paper PMC8728848
# This is one part of the list.
# Assays:
# Assay in all cases: glycan array binding signal (z-score within array); higher = stronger binding
# Conditions in all cases: glycan notation: IUPAC condensed, linker removed
# [1] = biological target: Neu5Ac(a2-6)Gal(b1-4)GlcNAc(b1-3)GalNAc
# Summary of the method: (§1)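 Glycan array data were curated from 3228 arrays in the Consortium for Functional Glycomics database and kept only where the protein sequence was available. Glycan names were converted to IUPAC-condensed notation, and columns mapping to the same glycan were averaged. The binding signal is a within-array Z-score, averaged across arrays of the same protein sequence at different concentrations or buffers and across linkers. Negative Z-scores can be read as non-binding.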
# [2] = biological target: Neu5Ac(a2-6)Gal(b1-4)GlcNAc(b1-3)[Neu5Ac(a2-6)Gal(b1-4)GlcNAc(b1-6)]GalNAc
# Summary of the method: as §1
# [3] = biological target: Neu5Ac(a2-6)Gal(b1-4)GlcNAc(b1-6)GalNAc
# Summary of the method: as §1
# [4] = biological target: Neu5Ac(a2-6)Gal(b1-4)GlcNAc(b1-6)[Gal(b1-3)GlcNAc(b1-3)]Gal(b1-4)Glc
# Summary of the method: as §1
# [5] = biological target: Neu5Ac(a2-6)Gal(b1-4)GlcNAc(b1-6)[Gal(b1-3)]GalNAc
# Summary of the method: as §1
# [6] = biological target: Neu5Ac(a2-6)Gal(b1-4)GlcNAc6S
# Summary of the method: as §1
# Neu5Ac(a2-6)GalNAc = biological target: Neu5Ac(a2-6)GalNAc
# Summary of the method: as §1
# [7] = biological target: Neu5Ac(a2-6)GalNAc(b1-4)GlcNAc
# Summary of the method: as §1
# [8] = biological target: Neu5Ac(a2-6)GalNAc(b1-4)GlcNAc6S
# Summary of the method: as §1
# [9] = biological target: Neu5Ac(a2-6)GlcNAc(b1-4)GlcNAc
# Summary of the method: as §1
# [10] = biological target: Neu5Ac(a2-6)GlcNAc(b1-4)GlcNAc(b1-4)GlcNAc
# Summary of the method: as §1
# Neu5Ac(a2-8)Neu5Ac = biological target: Neu5Ac(a2-8)Neu5Ac
# Summary of the method: as §1
# [11] = biological target: Neu5Ac(a2-8)Neu5Ac(a2-3)Gal(b1-3)GalNAc(b1-4)[Neu5Ac(a2-3)]Gal(b1-4)Glc
# Summary of the method: as §1
# [12] = biological target: Neu5Ac(a2-8)Neu5Ac(a2-3)Gal(b1-3)GalNAc(b1-4)[Neu5Ac(a2-8)Neu5Ac(a2-3)]Gal(b1-4)Glc
# Summary of the method: as §1
# [13] = biological target: Neu5Ac(a2-8)Neu5Ac(a2-3)Gal(b1-4)Glc
# Summary of the method: as §1
# [14] = biological target: Neu5Ac(a2-8)Neu5Ac(a2-3)Gal(b1-4)GlcNAc
# Summary of the method: as §1
# [15] = biological target: Neu5Ac(a2-8)Neu5Ac(a2-3)[Gal(b1-3)GalNAc(b1-4)]Gal(b1-4)Glc
# Summary of the method: as §1
# [16] = biological target: Neu5Ac(a2-8)Neu5Ac(a2-3)[GalNAc(b1-4)]Gal(b1-4)Glc
# Summary of the method: as §1
# [17] = biological target: Neu5Ac(a2-8)Neu5Ac(a2-8)Neu5Ac
# Summary of the method: as §1
# [18] = biological target: Neu5Ac(a2-8)Neu5Ac(a2-8)Neu5Ac(a2-3)Gal(b1-4)Glc
# Summary of the method: as §1
# [19] = biological target: Neu5Ac(a2-8)Neu5Ac(a2-8)Neu5Ac(a2-3)[Gal(b1-3)GalNAc(b1-4)]Gal(b1-4)Glc
# Summary of the method: as §1
# [20] = biological target: Neu5Ac(a2-8)Neu5Ac(a2-8)Neu5Ac(a2-3)[GalNAc(b1-4)]Gal(b1-4)Glc
# Summary of the method: as §1
# [21] = biological target: Neu5Ac(a2-8)Neu5Ac(a2-8)Neu5Ac(a2-8)Neu5Ac(a2-3)[GalNAc(b1-4)]Gal(b1-4)Glc
# Summary of the method: as §1
# [22] = biological target: Neu5Ac(a2-8)Neu5Gc(a2-3)Gal(b1-4)GlcNAc
# Summary of the method: as §1
# [23] = biological target: Neu5Ac(b2-6)Gal(b1-4)GlcNAc
# Summary of the method: as §1
# Neu5Ac(b2-6)GalNAc = biological target: Neu5Ac(b2-6)GalNAc
# Summary of the method: as §1
# [24] = biological target: Neu5Ac9Ac(a2-3)Gal(b1-3)GlcNAc
# Summary of the method: as §1
# [25] = biological target: Neu5Ac9Ac(a2-3)Gal(b1-4)GlcNAc
# Summary of the method: as §1
# [26] = biological target: Neu5Ac9Ac(a2-6)Gal(b1-4)GlcNAc
# Summary of the method: as §1
# [27] = biological target: Neu5Gc(a2-3)Gal(b1-3)GlcNAc
# Summary of the method: as §1
# [28] = biological target: Neu5Gc(a2-3)Gal(b1-3)[Fuc(a1-4)]GlcNAc
# Summary of the method: as §1
# Neu5Gc(a2-3)Gal(b1-4)Glc = biological target: Neu5Gc(a2-3)Gal(b1-4)Glc
# Summary of the method: as §1
# [29] = biological target: Neu5Gc(a2-3)Gal(b1-4)GlcNAc
# Summary of the method: as §1
# [30] = biological target: Neu5Gc(a2-3)Gal(b1-4)GlcNAc(b1-3)Gal(b1-4)GlcNAc(b1-2)Man(a1-3)[Neu5Gc(a2-3)Gal(b1-4)GlcNAc(b1-3)Gal(b1-4)GlcNAc(b1-2)Man(a1-6)]Man(b1-4)GlcNAc(b1-4)GlcNAc
# Summary of the method: as §1
# [31] = biological target: Neu5Gc(a2-3)Gal(b1-4)[Fuc(a1-3)]GlcNAc
# Summary of the method: as §1
# [32] = biological target: Neu5Gc(a2-6)Gal(b1-4)GlcNAc
# Summary of the method: as §1
# Neu5Gc(a2-6)GalNAc = biological target: Neu5Gc(a2-6)GalNAc
# Summary of the method: as §1
# [33] = biological target: Neu5Gc(a2-8)Neu5Ac(a2-3)Gal(b1-4)GlcNAc
# Summary of the method: as §1
# [34] = biological target: Neu5Gc(a2-8)Neu5Gc(a2-3)Gal(b1-4)GlcNAc
# Summary of the method: as §1
# [35] = biological target: Neu5Gc(a2-8)Neu5Gc(a2-3)Gal(b1-4)GlcNAc(b1-3)Gal(b1-4)GlcNAc
# Summary of the method: as §1
# [36] = biological target: Neu5Gc(a2-8)Neu5Gc(a2-6)Gal(b1-4)GlcNAc
# Summary of the method: as §1
# [37] = biological target: Neu5Gc(b2-6)Gal(b1-4)GlcNAc
# Summary of the method: as §1
binder,measurement,setting,value
KISKRILTGKK [NK11 (Sus scrofa)],glycan array binding signal (z-score),[1],0.966
same,glycan array binding signal (z-score),[2],0.531
same,glycan array binding signal (z-score),[3],-0.246
same,glycan array binding signal (z-score),[4],-0.538
same,glycan array binding signal (z-score),[5],-0.327
same,glycan array binding signal (z-score),[6],0.729
same,glycan array binding signal (z-score),Neu5Ac(a2-6)GalNAc,0.142
same,glycan array binding signal (z-score),[7],-0.765
same,glycan array binding signal (z-score),[8],-0.697
same,glycan array binding signal (z-score),[9],0.751
same,glycan array binding signal (z-score),[10],-0.7
same,glycan array binding signal (z-score),Neu5Ac(a2-8)Neu5Ac,-0.559
same,glycan array binding signal (z-score),[11],0.326
same,glycan array binding signal (z-score),[12],-0.754
same,glycan array binding signal (z-score),[13],-0.177
same,glycan array binding signal (z-score),[14],-1.78
same,glycan array binding signal (z-score),[15],-0.681
same,glycan array binding signal (z-score),[16],-0.123
same,glycan array binding signal (z-score),[17],0.225
same,glycan array binding signal (z-score),[18],-0.187
same,glycan array binding signal (z-score),[19],-0.428
same,glycan array binding signal (z-score),[20],1.29
same,glycan array binding signal (z-score),[21],0.225
same,glycan array binding signal (z-score),[22],-2.12
same,glycan array binding signal (z-score),[23],0.339
same,glycan array binding signal (z-score),Neu5Ac(b2-6)GalNAc,1.04
same,glycan array binding signal (z-score),[24],-0.131
same,glycan array binding signal (z-score),[25],0.556
same,glycan array binding signal (z-score),[26],0.883
same,glycan array binding signal (z-score),[27],0.339
same,glycan array binding signal (z-score),[28],0.405
same,glycan array binding signal (z-score),Neu5Gc(a2-3)Gal(b1-4)Glc,0.165
same,glycan array binding signal (z-score),[29],0.063
same,glycan array binding signal (z-score),[30],1.22
same,glycan array binding signal (z-score),[31],0.298
same,glycan array binding signal (z-score),[32],-0.07
same,glycan array binding signal (z-score),Neu5Gc(a2-6)GalNAc,0.082
same,glycan array binding signal (z-score),[33],-0.047
same,glycan array binding signal (z-score),[34],-0.325
same,glycan array binding signal (z-score),[35],-1.28
same,glycan array binding signal (z-score),[36],-1.42
same,glycan array binding signal (z-score),[37],-0.146

# Exported bar-delimited: entries from further up
binder | measurement | setting | value
KISKRILTGKK [NK11 (Sus scrofa)] | glycan array binding signal (z-score) | [3] | -0.246
same | glycan array binding signal (z-score) | [36] | -1.42
